Reference: the supplement of paper PMC11546906
Structures can show the parent of a compound that is named as a salt. This is one part of the list. Single values are uncertain here, since repeats match poorly.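 A screen tested FDA-approved drugs combined with one-eighth-MIC colistin against a clinical mcr-1-positive, multidrug-resistant E. coli isolate, measuring OD600 at 24 h. Controls were untreated bacteria (growth) and broth alone (blank). An OD600 under 0.2 marked a combination as active.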

system: Escherichia coli 42 (mcr-1-positive clinical isolate); assay: OD600 after 24 h growth with compound plus colistin (absorbance units (OD600)); higher = more bacterial growth (less inhibition); details: first compound 25 µM; colistin concentration 0.5 ug/mL; incubation time 24 h; 37 °C

OD600, inactive:
CC[C@]1(O)C[C@@H]2CN(CCc3c([nH]c4ccccc34)[C@@](C(=O)OC)(c3cc4c(cc3OC)N(C)[C@H]3[C@@](O)(C(=O)OC)[C@H](OC(C)=O)[C@]5(CC)C=CCN6CC[C@]43[C@@H]65)C2)C1 [Vinblastine sulfate] + CCC(C)CCCC(=O)N[C@@H](CCN)C(=O)N[C@H](C(=O)N[C@@H](CCN)C(=O)N[C@H]1CCNC(=O)[C@H]([C@@H](C)O)NC(=O)[C@H](CCN)NC(=O)[C@H](CCN)NC(=O)[C@H](CC(C)C)NC(=O)[C@@H](CC(C)C)NC(=O)[C@H](CCN)NC1=O)[C@@H](C)O [colistin] 1.14
CCCCC(=O)N(Cc1ccc(-c2ccccc2-c2nn[nH]n2)cc1)[C@H](C(=O)O)C(C)C.CCOC(=O)[C@H](C)C[C@@H](Cc1ccc(-c2ccccc2)cc1)NC(=O)CCC(=O)O [Sacubitril/Valsartan] + CCC(C)CCCC(=O)N[C@@H](CCN)C(=O)N[C@H](C(=O)N[C@@H](CCN)C(=O)N[C@H]1CCNC(=O)[C@H]([C@@H](C)O)NC(=O)[C@H](CCN)NC(=O)[C@H](CCN)NC(=O)[C@H](CC(C)C)NC(=O)[C@@H](CC(C)C)NC(=O)[C@H](CCN)NC1=O)[C@@H](C)O [colistin] 1.12
C=C1CCN([C@H](C)[C@](O)(Cn2cncn2)c2ccc(F)cc2F)CC1 [Efinaconazole] + CCC(C)CCCC(=O)N[C@@H](CCN)C(=O)N[C@H](C(=O)N[C@@H](CCN)C(=O)N[C@H]1CCNC(=O)[C@H]([C@@H](C)O)NC(=O)[C@H](CCN)NC(=O)[C@H](CCN)NC(=O)[C@H](CC(C)C)NC(=O)[C@@H](CC(C)C)NC(=O)[C@H](CCN)NC1=O)[C@@H](C)O [colistin] 0.764
